We go through three sequences from article PMC9772228, “Structure of a RecT/Redβ family recombinase in complex with a duplex intermediate of DNA annealing”.

Changes are numbered by the printed parent chain. For some assays here: Weaker means in comparison with the reference protein, sequence or condition of that experiment. Tags and fusion partners may be left off the protein sequences shown. For some assays here: Construct, isoform or probe ends are uncertain for at least one entry. For some assays here: At least one verdict rests on a figure or table, not on a statement of the authors.

Holding throughout (test): EMSA
(A gel shift assay detects complexes by their altered migration in electrophoresis.)

Data set [1] concerns the target T1, LiRecT H185A (Listeria innocua CLIP 11262) (UniProt Q92FL9).
T1 sequence (looked up): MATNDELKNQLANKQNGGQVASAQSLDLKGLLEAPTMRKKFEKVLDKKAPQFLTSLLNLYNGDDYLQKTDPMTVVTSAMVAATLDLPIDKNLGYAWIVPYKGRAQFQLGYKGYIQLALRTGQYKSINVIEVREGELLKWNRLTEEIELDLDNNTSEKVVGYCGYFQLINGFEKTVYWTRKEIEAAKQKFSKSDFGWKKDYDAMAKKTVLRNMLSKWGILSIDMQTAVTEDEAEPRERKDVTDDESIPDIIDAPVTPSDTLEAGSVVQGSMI
The following applies: EMSA: PBS pH 7.4 (or KH2PO4/10 mM MgCl2 pH 6.0), 3.6 or 5 uM protein, 25 uM nt DNA, 37 C 15 min per strand, 0.8% agarose 1x TBE, recombinant protein, residues 1-271, protein details: N-terminal 6His vector tag (20 aa) retained.

Data set [2] concerns the target T2, LiRecT I218A (Listeria innocua CLIP 11262) (UniProt Q92FL9).
T2 sequence (looked up): T1 sequence (looked up) with A185H, I218A
The conditions noted are these: EMSA: PBS pH 7.4 (or KH2PO4/10 mM MgCl2 pH 6.0), 3.6 or 5 uM protein, 25 uM nt DNA, 37 C 15 min per strand, 0.8% agarose 1x TBE, recombinant protein, residues 1-271, protein details: N-terminal 6His vector tag (20 aa) retained.

Data set [3] concerns the target T3, LiRecT K206A (Listeria innocua CLIP 11262) (UniProt Q92FL9).
T3 sequence (looked up): T1 sequence (looked up) with A185H, K206A
The conditions noted are these: EMSA: PBS pH 7.4 (or KH2PO4/10 mM MgCl2 pH 6.0), 3.6 or 5 uM protein, 25 uM nt DNA, 37 C 15 min per strand, 0.8% agarose 1x TBE, recombinant protein, residues 1-271, protein details: N-terminal 6His vector tag (20 aa) retained.

Data set [4] addresses T4, LiRecT K215A (Listeria innocua CLIP 11262) (UniProt Q92FL9).
T4 sequence (looked up): T1 sequence (looked up) with A185H, K215A
The following applies: EMSA: PBS pH 7.4 (or KH2PO4/10 mM MgCl2 pH 6.0), 3.6 or 5 uM protein, 25 uM nt DNA, 37 C 15 min per strand, 0.8% agarose 1x TBE, recombinant protein, residues 1-271, protein details: N-terminal 6His vector tag (20 aa) retained.

In data set [5] the target is T5, LiRecT N211A (Listeria innocua CLIP 11262) (UniProt Q92FL9).
T5 sequence (looked up): T1 sequence (looked up) with A185H, N211A
The following applies: EMSA: PBS pH 7.4 (or KH2PO4/10 mM MgCl2 pH 6.0), 3.6 or 5 uM protein, 25 uM nt DNA, 37 C 15 min per strand, 0.8% agarose 1x TBE, recombinant protein, residues 1-271, protein details: N-terminal 6His vector tag (20 aa) retained.

In data set [6] the target is T6, LiRecT W96A (Listeria innocua CLIP 11262) (UniProt Q92FL9).
T6 sequence (looked up): T1 sequence (looked up) with W96A, A185H
The following applies: EMSA: PBS pH 7.4 (or KH2PO4/10 mM MgCl2 pH 6.0), 3.6 or 5 uM protein, 25 uM nt DNA, 37 C 15 min per strand, 0.8% agarose 1x TBE, recombinant protein, residues 1-271, protein details: N-terminal 6His vector tag (20 aa) retained.

Data set [7] concerns the target T7, λ-Redβ (bacteriophage lambda) (UniProt P03698).
T7 sequence (looked up, limits assumed): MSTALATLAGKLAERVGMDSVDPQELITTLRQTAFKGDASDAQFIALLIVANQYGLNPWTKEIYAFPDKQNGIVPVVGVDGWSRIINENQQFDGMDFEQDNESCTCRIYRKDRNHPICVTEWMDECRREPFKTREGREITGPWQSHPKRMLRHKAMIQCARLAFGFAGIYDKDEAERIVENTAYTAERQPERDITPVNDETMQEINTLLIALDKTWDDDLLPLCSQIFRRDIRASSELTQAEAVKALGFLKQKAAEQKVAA
The conditions noted are these: EMSA: PBS pH 7.4 (or KH2PO4/10 mM MgCl2 pH 6.0), 3.6 or 5 uM protein, 25 uM nt DNA, 37 C 15 min per strand, 0.8% agarose 1x TBE; recombinant protein; label: 5'-Cy3; single-stranded DNA.

Data set [8] concerns the target T8, LiRecT V98A (Listeria innocua CLIP 11262) (UniProt Q92FL9).
T8 sequence (looked up): T1 sequence (looked up) with V98A, A185H
The conditions noted are these: EMSA: PBS pH 7.4 (or KH2PO4/10 mM MgCl2 pH 6.0), 3.6 or 5 uM protein, 25 uM nt DNA, 37 C 15 min per strand, 0.8% agarose 1x TBE; recombinant protein; residues 1-271; protein details: N-terminal 6His vector tag (20 aa) retained; label: 5'-Cy3,5'-Cy5.

The mark [9] stands for this setting: label: 5'-Cy3, single-stranded DNA.
[10] abbreviates: label: 5'-Cy5, single-stranded DNA.

As to “GCGGATGGCTTAGAGCAGAATCGCCCTGCATAGCTCGATTTTTGCGGATG [Cy3-50mer]”, the binding result in data set [1] (setting [9]), in data set [2] (setting [9]), in data set [3] (setting [9]), in data set [4] (setting [9]), in data set [5] (setting [9]) and in data set [6] (setting [9]) was “binds” throughout. The binding result in data set [7] is listed as “binds more weakly”.
For the sequence “GCGGATGGCTTAGAGCAGAATCGCCCTGCATAGCTCGATTTTTGCGGATG / CCATCCGCAAAAATCGAGCTATGCAGGGCGATTCTGCTCTAAGCCATCCG [50-mer duplex intermediate (sequential addition)]”, the binding result in data set [1] (label: 5'-Cy3,5'-Cy5) is on record as “binds”; in data set [2] (label: 5'-Cy3,5'-Cy5), “binds”; in data set [3] (label: 5'-Cy3,5'-Cy5) it was “binds”; in data set [4] (label: 5'-Cy3,5'-Cy5), “binds”; in data set [5] (label: 5'-Cy3,5'-Cy5), “binds”; in data set [8] it was “binds more weakly”. Besides, the binding result in data set [6] (label: 5'-Cy3,5'-Cy5) was “binds”.
For “CCATCCGCAAAAATCGAGCTATGCAGGGCGATTCTGCTCTAAGCCATCCG [Cy5-50mer]”, the binding result in data set [1] (setting [10]), in data set [2] (setting [10]), in data set [3] (setting [10]), in data set [4] (setting [10]), in data set [5] (setting [10]) and in data set [6] (setting [10]) was “binds” in each case.
